{"source": "patent US12146183B2", "about": "“Compound and a method for identifying a protein using said compound” (CITY UNIVERSITY OF HONG KONG, priority 2020, dated 2024)", "biological_target": "T1, Sirt2 (Homo sapiens, UniProt Q8IXJ6)", "T1 construct": "made in house", "T1 sequence (Q8IXJ6 1-389)": "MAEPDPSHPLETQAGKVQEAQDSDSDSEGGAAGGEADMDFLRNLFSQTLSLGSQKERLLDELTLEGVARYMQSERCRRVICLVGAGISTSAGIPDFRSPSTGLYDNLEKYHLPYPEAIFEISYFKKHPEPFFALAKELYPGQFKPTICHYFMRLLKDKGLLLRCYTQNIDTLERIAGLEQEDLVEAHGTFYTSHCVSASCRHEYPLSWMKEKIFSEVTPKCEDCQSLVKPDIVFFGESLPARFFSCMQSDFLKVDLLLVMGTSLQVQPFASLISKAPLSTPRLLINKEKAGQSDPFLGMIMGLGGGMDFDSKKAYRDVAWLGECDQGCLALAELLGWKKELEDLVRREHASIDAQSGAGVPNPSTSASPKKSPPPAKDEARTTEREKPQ", "test": "Steady-state kinetic study of lipoylated peptides with Sirt2 (HPLC)", "assay_type": "biochemical", "conditions": "delipoylation of DLAT K259 peptide, Sirt2 versus Sirt4", "procedure": "The delipoylation activity of HDAC8 was further examined using KAlip-5 and KAlip-1. […] A more detailed assessment of the enzymatic delipoylation reaction was performed. Time-dependent experiments and steady-state kinetics studies were conducted of KAlip-1, 5, 8, and 10 with Sirt2 (Table 1).\nTo determine the values of kcat, and Km, purified Sirt2 with 400 μM NAD+ was incubated with different concentrations of lipoylated peptide (0-120 μM) in 20 mM HEPES buffer (pH 8.0) containing 150 mM NaCl, 1 mM MgCl2, and 2.7 mM KCl at 37° C. for 10 min (KAlip-1 and KAlip-10) or 5 min (KAlip-5 and KAlip-8). The reactions were quenched by adding 250 μL of methanol and then applied for HPLC analysis with a linear gradient of 5% to 85% B (acetonitrile) for 30 min. The generated delipoylated product was quantified based on the peak area monitored at 280 nm. The kcat, and Km, values were calculated by curve-fitting Vinitiai/[E] versus [S]. The experiments were conducted in duplicate.", "note": "Part of at least one peptide drawing is inferred or uncertain, most often the ends. Where a SMILES comes first, the peptide text is derived from it. The star is where a group is joined. ξ: configuration not given here. Lipoyl(6ξ) = O=C(CCCCC1CCSS1)*"}
{"smiles": "CC[C@H](C)[C@H](NC(=O)[C@@H](NC(=O)[C@H](C)NC(=O)[C@H](CCCCNC(=O)CCCCC1CCSS1)NC(=O)[C@H](CC(=O)O)NC(=O)[C@@H](NC(=O)[C@H](CCC(=O)O)NC(=O)[C@@H](NC(=O)[C@@H](N)CCC(=O)O)[C@@H](C)CC)[C@@H](C)O)[C@@H](C)O)C(=O)NCC(=O)N[C@@H](Cc1c[nH]c2ccccc12)C(=O)N[C@@H](Cc1c[nH]c2ccccc12)C(=O)O", "note": "(stereo partly shown) [KAlip-5, EIETDK(lip)ATIGWW] (H-EIETDK(Lipoyl(6ξ))ATIGWW-OH)", "values": [{"measurement": "Catalytic efficiency (Kcat/Km) of Sirt2 relative to that of Sirt4", "value": "approximately 426 fold"}]}
